Experimental data reported in publication PMC7156367, “Cell surface processing of the P1 adhesin of Mycoplasma pneumoniae identifies novel domains that bind host molecules” (Scientific Reports, 2020).

By UniProt entry, the sequences of proteins in these tests, tags left out. Residues count along the entry.
UniProt P12763, residues 19-359: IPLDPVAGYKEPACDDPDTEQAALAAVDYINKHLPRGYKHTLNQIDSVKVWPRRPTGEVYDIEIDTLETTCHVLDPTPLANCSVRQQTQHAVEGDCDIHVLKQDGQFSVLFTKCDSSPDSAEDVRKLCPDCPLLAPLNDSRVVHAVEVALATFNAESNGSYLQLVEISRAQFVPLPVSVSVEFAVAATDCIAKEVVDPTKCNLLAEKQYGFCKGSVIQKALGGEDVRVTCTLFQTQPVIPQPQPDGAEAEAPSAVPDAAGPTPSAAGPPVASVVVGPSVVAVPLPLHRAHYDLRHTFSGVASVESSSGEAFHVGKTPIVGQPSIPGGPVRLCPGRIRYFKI
UniProt P08670: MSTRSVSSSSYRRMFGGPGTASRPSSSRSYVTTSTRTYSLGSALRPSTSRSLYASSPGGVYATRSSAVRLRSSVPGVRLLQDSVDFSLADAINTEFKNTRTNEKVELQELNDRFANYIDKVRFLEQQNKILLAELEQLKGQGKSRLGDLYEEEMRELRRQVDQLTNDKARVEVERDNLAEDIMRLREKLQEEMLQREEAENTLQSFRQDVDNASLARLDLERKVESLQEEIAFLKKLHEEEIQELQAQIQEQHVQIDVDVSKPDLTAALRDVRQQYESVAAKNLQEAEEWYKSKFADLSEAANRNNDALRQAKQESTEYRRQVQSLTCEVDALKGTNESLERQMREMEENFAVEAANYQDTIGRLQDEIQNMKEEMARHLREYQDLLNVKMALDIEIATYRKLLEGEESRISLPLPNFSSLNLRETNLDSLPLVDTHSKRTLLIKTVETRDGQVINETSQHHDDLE
UniProt P08729: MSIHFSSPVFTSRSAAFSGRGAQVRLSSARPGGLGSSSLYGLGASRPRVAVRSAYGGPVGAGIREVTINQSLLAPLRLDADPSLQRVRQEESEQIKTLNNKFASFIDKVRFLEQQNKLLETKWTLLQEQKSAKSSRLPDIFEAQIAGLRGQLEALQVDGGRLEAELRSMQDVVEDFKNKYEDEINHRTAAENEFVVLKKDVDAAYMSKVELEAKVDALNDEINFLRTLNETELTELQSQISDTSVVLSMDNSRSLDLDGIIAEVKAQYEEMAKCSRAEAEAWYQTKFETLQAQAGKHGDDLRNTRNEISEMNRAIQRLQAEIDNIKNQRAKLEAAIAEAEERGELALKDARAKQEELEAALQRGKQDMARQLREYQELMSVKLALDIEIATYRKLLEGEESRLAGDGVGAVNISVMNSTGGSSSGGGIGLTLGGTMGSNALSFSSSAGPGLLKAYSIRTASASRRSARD
UniProt P04406: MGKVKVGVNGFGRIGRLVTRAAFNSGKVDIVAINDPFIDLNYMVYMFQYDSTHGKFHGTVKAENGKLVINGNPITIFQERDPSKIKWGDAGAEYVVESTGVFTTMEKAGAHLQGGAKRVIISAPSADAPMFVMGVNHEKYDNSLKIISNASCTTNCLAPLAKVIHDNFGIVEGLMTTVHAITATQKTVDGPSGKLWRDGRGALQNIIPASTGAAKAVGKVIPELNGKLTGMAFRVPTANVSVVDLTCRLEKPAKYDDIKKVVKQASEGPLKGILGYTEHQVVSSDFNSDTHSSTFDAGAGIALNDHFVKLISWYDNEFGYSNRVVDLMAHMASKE
UniProt P11311, residues 60-1627: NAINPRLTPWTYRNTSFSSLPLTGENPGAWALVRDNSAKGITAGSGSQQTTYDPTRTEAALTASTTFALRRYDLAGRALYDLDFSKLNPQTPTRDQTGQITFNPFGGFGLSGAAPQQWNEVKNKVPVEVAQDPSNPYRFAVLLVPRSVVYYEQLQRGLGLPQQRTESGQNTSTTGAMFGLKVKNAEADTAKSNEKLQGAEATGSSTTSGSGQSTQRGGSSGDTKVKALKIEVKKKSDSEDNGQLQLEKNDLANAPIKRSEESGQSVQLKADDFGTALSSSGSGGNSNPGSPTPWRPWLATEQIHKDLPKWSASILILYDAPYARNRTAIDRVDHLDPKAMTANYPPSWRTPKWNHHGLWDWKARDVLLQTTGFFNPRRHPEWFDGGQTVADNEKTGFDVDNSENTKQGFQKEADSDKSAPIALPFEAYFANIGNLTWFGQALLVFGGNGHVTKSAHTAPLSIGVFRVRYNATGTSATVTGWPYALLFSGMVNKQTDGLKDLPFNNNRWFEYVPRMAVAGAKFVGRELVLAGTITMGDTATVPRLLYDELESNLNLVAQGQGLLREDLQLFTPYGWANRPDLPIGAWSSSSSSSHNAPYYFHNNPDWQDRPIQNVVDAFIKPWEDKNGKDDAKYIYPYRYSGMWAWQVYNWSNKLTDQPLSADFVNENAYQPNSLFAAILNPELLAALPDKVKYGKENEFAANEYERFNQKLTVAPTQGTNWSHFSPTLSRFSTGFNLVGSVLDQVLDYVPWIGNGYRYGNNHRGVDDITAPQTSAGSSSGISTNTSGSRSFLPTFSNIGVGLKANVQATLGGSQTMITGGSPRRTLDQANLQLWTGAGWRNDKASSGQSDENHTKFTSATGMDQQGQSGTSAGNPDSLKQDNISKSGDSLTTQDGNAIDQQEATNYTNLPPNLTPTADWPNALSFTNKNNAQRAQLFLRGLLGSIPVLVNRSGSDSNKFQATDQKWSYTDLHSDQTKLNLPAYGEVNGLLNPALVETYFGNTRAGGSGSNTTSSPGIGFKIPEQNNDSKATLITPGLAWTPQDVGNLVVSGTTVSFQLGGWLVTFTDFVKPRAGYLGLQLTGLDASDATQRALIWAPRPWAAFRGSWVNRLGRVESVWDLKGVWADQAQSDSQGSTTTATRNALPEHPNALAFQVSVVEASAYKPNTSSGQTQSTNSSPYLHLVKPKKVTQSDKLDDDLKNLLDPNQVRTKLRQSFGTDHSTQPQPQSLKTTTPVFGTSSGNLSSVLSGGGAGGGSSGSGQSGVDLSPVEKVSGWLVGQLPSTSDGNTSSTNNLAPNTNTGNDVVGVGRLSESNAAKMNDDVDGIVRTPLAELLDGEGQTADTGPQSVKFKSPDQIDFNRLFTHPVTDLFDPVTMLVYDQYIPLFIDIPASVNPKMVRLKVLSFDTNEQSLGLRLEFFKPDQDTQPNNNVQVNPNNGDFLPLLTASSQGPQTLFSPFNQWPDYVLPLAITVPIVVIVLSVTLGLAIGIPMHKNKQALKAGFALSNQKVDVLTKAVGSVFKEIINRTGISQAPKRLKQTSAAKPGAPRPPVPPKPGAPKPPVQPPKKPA

B1: cytokeratin 18 (protein, UniProt P05783 1-430)
chain: MSFTTRSTFSTNYRSLGSVQAPSYGARPVSSAASVYAGAGGSGSRISVSRSTSFRGGMGSGGLATGIAGGLAGMGGIQNEKETMQSLNDRLASYLDRVRSLETENRRLESKIREHLEKKGPQVRDWSHYFKIIEDLRAQIFANTVDNARIVLQIDNARLAADDFRVKYETELAMRQSVENDIHGLRKVIDDTNITRLQLETEIEALKEELLFMKKNHEEEVKGLQAQIASSGLTVEVDAPKSQDLAKIMADIRAQYDELARKNREELDKYWSQQIEESTTVVTTQSAEVGAAETTLTELRRTVQSLEIDLDSMRNLKASLENSLREVEARYALQMEQLNGILLHLESELAQTRAEGQRQAQEYEALLNIKVKLEAEIATYRRLLEDGEDFNLGDALDSSNSMQTIQKTTTRRIVDGKVVSETNDTKVLRH

Assays:
[1] = molecular target: T1, P1-15, synthetic C-terminal peptide of P1 adhesin with N-terminal biotin (Mycoplasma pneumoniae); assay: affinity purification with mass spectrometry; 1 mg biotinylated P1-15 on Avidin Agarose as bait; native A549 cell lysate (1% C7BzO in PBS), 16 h at 4 °C; four PBS washes; eluted with urea/thiourea; uncoupled avidin agarose as control; 1D-SDS PAGE and LC-MS/MS; only the target purified
T1 sequence (peptide, N-terminal biotin tag): PGAPKPPVQPPKKPA

[2] = molecular target: Bovine fetuin (bait of affinity chromatography) (bovine) (UniProt P12763); assay: affinity purification with mass spectrometry; host protein bound to Avidin Agarose as bait; native M. pneumoniae lysate (1% C7BzO in PBS, pH 7.8) as prey; washed with PBS, eluted with 7 M urea, 2 M thiourea, 40 mM Tris-HCl, 1% C7BzO; 1D-SDS PAGE and LC-MS/MS; only the target purified

Row | Molecule | binding [1] | binding [2]
1 | vimentin (from UniProt P08670 1-466) | binds | –
2 | cytokeratin 7 (from UniProt P08729 1-469) | binds | –
3 | glyceraldehyde-3-phosphate dehydrogenase (from UniProt P04406 1-335) (enzyme) | no binding | –
4 | P1 adhesin, full length proteoform without the N-terminal signal sequence (from UniProt P11311 60-1627) | – | binds
5 | B1 | binds | –

No constants are given. Whether binding was seen depends on the method and setting. In cells and extracts the contact can be indirect. These calls come from enrichment with a bait or labelling near it, and not all partners need be listed. For some assays here: No binding means not detected with the bait. For some assays here: Where a sequence is shown, tags or fusion partners need not be part of it.
